Results are given in words; binding and its absence hold for the method and conditions named. Some results given as binding are weak or reduced against the parent protein; the word gives no strength.

Sequences of proteins named here, by UniProt entry; tags and fusion partners are left off. A change or cut given only in a name is not applied to a line headed by its entry. Residues count along the entry.
UniProt P08253, residues 110-660: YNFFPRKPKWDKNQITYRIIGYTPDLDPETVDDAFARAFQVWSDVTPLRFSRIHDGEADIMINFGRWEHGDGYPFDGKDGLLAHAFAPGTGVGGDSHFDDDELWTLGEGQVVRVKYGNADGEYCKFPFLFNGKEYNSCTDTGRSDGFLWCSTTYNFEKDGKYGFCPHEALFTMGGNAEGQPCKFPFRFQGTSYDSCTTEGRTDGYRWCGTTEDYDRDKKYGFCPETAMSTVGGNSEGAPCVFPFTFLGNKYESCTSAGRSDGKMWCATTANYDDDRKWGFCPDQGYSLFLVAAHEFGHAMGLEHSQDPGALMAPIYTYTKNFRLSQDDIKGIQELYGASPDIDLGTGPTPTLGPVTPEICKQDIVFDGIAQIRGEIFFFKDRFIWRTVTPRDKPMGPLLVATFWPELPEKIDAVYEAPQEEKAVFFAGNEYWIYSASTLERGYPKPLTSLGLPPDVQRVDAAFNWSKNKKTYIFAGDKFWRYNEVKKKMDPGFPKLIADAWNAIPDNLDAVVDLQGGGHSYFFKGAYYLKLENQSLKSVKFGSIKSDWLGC
UniProt P02462: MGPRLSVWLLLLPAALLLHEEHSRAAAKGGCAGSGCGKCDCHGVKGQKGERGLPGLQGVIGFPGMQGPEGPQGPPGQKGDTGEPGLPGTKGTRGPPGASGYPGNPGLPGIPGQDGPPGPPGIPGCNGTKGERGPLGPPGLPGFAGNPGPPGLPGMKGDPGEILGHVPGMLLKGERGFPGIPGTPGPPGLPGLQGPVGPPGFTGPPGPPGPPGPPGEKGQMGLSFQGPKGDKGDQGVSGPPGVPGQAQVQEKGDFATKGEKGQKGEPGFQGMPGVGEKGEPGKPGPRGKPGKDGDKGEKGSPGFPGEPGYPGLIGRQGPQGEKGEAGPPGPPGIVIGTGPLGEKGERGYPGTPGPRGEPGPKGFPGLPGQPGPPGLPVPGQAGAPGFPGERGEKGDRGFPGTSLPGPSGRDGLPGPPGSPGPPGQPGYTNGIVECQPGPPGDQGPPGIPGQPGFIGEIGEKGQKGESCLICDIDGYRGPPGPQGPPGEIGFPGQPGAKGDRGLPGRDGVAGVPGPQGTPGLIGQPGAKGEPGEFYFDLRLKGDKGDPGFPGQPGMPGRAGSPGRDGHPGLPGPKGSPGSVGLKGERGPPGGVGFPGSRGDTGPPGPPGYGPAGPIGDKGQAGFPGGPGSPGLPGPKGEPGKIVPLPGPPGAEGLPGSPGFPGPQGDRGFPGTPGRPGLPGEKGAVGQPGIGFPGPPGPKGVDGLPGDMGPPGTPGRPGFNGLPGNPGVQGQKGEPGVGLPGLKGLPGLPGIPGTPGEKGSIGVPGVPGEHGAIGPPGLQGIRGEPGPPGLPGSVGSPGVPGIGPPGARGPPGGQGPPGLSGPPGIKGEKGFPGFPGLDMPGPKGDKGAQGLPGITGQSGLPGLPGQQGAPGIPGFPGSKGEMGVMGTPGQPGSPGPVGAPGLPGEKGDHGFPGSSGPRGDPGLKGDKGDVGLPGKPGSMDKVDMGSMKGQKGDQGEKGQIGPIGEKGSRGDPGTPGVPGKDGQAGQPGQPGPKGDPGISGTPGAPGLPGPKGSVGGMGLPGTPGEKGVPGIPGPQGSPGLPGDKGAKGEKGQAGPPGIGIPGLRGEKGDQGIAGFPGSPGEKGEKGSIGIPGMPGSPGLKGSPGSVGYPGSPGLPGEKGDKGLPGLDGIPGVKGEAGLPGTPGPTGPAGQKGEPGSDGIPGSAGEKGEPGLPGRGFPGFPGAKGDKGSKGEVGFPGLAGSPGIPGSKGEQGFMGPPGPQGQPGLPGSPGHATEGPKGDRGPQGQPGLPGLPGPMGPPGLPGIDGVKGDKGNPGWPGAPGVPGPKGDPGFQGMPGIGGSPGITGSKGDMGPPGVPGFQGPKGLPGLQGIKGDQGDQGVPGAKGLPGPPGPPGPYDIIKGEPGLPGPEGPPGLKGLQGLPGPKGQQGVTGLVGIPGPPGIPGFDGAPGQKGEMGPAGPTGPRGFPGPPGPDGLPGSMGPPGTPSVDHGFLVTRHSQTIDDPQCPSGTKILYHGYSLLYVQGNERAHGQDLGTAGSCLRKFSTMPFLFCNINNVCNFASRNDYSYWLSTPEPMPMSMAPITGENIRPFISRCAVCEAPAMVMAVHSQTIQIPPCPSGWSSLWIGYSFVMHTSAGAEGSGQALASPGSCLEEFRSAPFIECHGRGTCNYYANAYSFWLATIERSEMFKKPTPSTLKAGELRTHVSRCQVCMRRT

This test addresses MMP-2 (UniProt P08253). Kind of test: inferred from inhibition of Matrigel degradation by MMP-2.

On to “human Arresten (way of production not stated for the assay) (from UniProt P02462 1441-1669) (ligand)”, for which the binding entry is given as “binds”.
